From paper PMC7075897

T1: EcR (isoform A) fused to BioID2 through a 25 nm GS linker, marked with 3xFLAG (Drosophila melanogaster) (UniProt P34021)
T1 sequence: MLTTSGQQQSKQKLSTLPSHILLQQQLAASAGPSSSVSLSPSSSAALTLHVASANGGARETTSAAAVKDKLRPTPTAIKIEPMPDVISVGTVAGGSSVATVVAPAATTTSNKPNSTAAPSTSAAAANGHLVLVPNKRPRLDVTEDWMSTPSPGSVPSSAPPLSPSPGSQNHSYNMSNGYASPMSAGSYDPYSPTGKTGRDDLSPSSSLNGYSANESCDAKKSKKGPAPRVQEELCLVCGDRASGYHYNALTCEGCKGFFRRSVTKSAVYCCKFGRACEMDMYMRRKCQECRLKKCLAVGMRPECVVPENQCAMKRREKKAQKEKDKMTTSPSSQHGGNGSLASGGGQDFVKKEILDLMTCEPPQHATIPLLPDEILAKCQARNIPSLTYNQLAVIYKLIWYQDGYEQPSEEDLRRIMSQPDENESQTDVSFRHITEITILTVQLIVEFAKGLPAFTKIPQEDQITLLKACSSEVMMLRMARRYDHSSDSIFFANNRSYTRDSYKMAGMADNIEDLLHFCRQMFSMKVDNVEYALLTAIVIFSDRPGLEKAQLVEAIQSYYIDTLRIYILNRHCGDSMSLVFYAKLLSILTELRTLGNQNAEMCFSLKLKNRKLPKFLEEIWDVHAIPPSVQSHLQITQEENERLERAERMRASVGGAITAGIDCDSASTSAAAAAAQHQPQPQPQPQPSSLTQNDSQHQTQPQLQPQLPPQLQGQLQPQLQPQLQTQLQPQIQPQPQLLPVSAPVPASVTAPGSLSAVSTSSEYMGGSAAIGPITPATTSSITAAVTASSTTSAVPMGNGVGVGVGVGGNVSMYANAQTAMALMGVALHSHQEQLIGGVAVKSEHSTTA

T2: Usp fused to BioID2 through a 25 nm GS linker, marked with 3xFLAG (Drosophila melanogaster) (UniProt P20153)
T2 sequence: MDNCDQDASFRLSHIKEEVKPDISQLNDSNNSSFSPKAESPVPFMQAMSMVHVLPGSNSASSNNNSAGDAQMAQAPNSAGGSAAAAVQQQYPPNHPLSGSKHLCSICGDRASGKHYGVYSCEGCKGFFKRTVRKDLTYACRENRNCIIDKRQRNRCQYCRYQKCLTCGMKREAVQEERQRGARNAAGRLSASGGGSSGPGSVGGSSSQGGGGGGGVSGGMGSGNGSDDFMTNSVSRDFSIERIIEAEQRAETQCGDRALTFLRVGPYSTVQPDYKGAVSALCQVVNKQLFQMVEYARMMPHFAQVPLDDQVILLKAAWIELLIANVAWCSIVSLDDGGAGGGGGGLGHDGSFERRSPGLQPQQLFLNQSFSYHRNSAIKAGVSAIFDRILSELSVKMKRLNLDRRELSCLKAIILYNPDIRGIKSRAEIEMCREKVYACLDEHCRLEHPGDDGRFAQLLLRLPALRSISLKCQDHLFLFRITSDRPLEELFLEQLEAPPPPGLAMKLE


Key:
[1] = target: T1, EcR (isoform A) fused to BioID2 through a 25 nm GS linker, marked with 3xFLAG (Drosophila melanogaster); assay: proximity labelling; BioID2 fusions or BioID2 alone in S2 cells, 20E or DMSO 14 h; streptavidin precipitates of nuclear lysates analysed by western blot
[2] = target: T2, Usp fused to BioID2 through a 25 nm GS linker, marked with 3xFLAG (Drosophila melanogaster); assay: as above
[3] = target: T1, EcR (isoform A) fused to BioID2 through a 25 nm GS linker, marked with 3xFLAG (Drosophila melanogaster); assay: proximity labelling; BioID2 fused to EcR or Usp, stably expressed in S2 cells; biotin 50 nM, 20E or DMSO for 14 h; nuclear extract, Streptavidin-Agarose precipitation, LC-MS/MS
[4] = target: T2, Usp fused to BioID2 through a 25 nm GS linker, marked with 3xFLAG (Drosophila melanogaster); assay: as above

binding [1] | binding [2] | binding [3] | binding [4] | Binder
binds | binds | binds | binds | Chromator (protein, UniProt Q8T9D1 1-926) MLAQEISPTEIGKHANIIRAAQEELANMDVLVCGRCLRAYNFVEEFQAHKEDACEKENANLKESLDPKPTIWAFTLWKATQLHSRKDASGNSWALYQHWVKLDDSVREPWIVAGKTIQSFGKIAHGQLQDMPVRITKTVVNPNNNNTSNSNNNNTSVSPTRKSPTGKLPTLANQLKDTENERPKSKPSTPTPSSVPSAGAVKPNNRIAIRIDSKTDQRTEEPVEKIVAKRFNPRRKTHEYLVKWVDRSHHENTWEVMANLERVPYFLQMFEKQLARQKLTREKGLDALKRMQSSGTNAKSDTASPHSPLPASSQVSPSSRPSRTSKTKAMDAFKQWVNETVAGDGSSSPSSANEDESSTEQEWPPSSGAIKRKLNNTDSSLEGSGLNDSMDLEDLEEDLPSHTVKRLKNGGSSVQLNKPRIQSTEKQQTKINGNSTVVSPLTEQKMGEIIYTEDSTSSGMFRKPEMPNTINLKKEKPECPVRYLSRSEVGSSTRGVFRVENSEAPAPVSPAPVPQKVIAAPPAAGIAKRLPMARPAHSGANSPITVGQRQHALRTPGHGPVTAALHRRPGVGGASHVRQNLQQAPGRAHPGGRVLARAGVGTPQHRQQVQTPQGAKAVTPEQKILQLSKSGDLKVTRKVVTREELLAQRSAQARQRQALSQQQSSQQQKATPARQRIVSKSTIQPTPLQMELEEEIHQHQAQLCPITGKLIGQEETQLQMEQEQQQEQQREQLEAAAQALLGSDQQVLTNEDGSALLVRGEDGTVYQVAGKNAEGQTILVTQGPDGEQQFAYVAAAEGEDQDVLSLDHAVAEAVQAGEQVESHGVGAATADGEQILVSMTEEELAQHQVLQQAEASAAGTGTPPTAQIHITTSDSDGTESQIPAEVVQADLPSPGGTRRVVLLLQDGTFMMTEMHEDQFKTLNIPT
binds | binds | binds | binds | NELF A (protein, UniProt Q86NP2 1-1251) MANVRDSDTSLWLHNKLGTSNDSWINGSICSQLNKEVLRNIKECFPDLQTQVKLKLLLSFLHIPRRLVEEWKAELEEVIEVAGLDSELWVSMLAETMKTFPATSSLNTEISDYEDTRPIFIDMVNDLRKLVTKHSDLGMLPLECQYLNKNALISVVGQQPAPVKHFTLKRKPKSAQLRTELLHKSADAQSSLKKASAPTIPLRSRGMPRKMTDTTPLKGIPSRMPTTGFRSATVPGNAAQRPNLSRTPAGRKDGGIKLIEFTEQPLGYAAAKKRKREQQLEEQQKKQEQKQQQAAAAAAAAATAAASNAGDSSPTDAATASGGETPVTPTSANNSFEIKMEPQQLNQSAGSLEEPQDDEMSGKANMECDIETPEYATATLDFAQATSTSVADGQPGKPAVETKLKTPRTPKSAAKLNNNNNNNNNNSFNHTPKRIKQEIEIKSEEIIVPASIKLEKIETSPSTQRVSIQQQPPSLVQRTPHLLIRSSPQKRQNNGATTSAGTTTTTVGNTTIKMEKLDIKPMIRATGVSPSTSAGTTTTLLTPQQLRQAANPLANLPNNISVKITSAKAKAAAAAAATSSGSQTQSQQPQTLQVQQAPQQSHPPLLINSSTPVILASSPSAQRAKALALPSSSTSATTTTTIPSQAIKTMPLSQLKTATNSGPVIISQTIIQPAKRAQQQAGTSSAAAASQQQQQQQSQQQLLHQQIQQQTQQQAQLPQQPQQQQTQYILATPQQQPQQIQQQQQQQQPILPTLTSFSHSRPMPQTTTLYQATTPSGSGQTPTKILLKTSGSSSVVMTPLRQAQPQQATAVVSSNPPPLVATSAAVVSPGQTTLNIQNVQLPNRPVTIQPASQAAQQQHMQAQLQQQQPHPQHTIVANTTATQQPKLSQVLMQPTAAVGTSGVSALNVSPTSGKNKTIILTQKGVILRNIGGDMYQQIPISNVGNMQGLGGTTLMTTTAGPPSLVKTTPSSGVQLQQQQSGKQILPTLIPTSSLGGQHVIVQQQQPTNVIGNSQQQTIIRPVMTNVGGGLTTLPQGLTLIQRPGQQPQLVQVQAAPGSTQRTIITQSNTAAAASQQQPRQQQQQILVQHKPAPTLQQRLVTSTTSGGQGQQGNPNAGLPRTVQVQVQAQQQQQPQQQQATQQQSQQAPQRRGLSLSNEHVHKAHEMFRKANRVSRPDKALILGFMAGLRENPRPNNENVLVIKLGETEEKVQQDNGHTALCLVESHIRLDYNTGEWKTFQNYRLQDQSAAS

These are yes or no findings as the source states them, for the method shown. Binding seen in cells or lysates may run through a third protein. A yes stands for co-enrichment or nearness to the bait. Other partners may have been found. Where a sequence is shown, tags or fusion partners need not be part of it.
